Measurements as given in PMC3217011.
No constants are given. Whether binding was seen depends on the method and setting. Some binding calls cover weakened binding; strength is not graded here.

Sequences of proteins named here, by UniProt entry; tags and fusion partners are left off.
UniProt P27588: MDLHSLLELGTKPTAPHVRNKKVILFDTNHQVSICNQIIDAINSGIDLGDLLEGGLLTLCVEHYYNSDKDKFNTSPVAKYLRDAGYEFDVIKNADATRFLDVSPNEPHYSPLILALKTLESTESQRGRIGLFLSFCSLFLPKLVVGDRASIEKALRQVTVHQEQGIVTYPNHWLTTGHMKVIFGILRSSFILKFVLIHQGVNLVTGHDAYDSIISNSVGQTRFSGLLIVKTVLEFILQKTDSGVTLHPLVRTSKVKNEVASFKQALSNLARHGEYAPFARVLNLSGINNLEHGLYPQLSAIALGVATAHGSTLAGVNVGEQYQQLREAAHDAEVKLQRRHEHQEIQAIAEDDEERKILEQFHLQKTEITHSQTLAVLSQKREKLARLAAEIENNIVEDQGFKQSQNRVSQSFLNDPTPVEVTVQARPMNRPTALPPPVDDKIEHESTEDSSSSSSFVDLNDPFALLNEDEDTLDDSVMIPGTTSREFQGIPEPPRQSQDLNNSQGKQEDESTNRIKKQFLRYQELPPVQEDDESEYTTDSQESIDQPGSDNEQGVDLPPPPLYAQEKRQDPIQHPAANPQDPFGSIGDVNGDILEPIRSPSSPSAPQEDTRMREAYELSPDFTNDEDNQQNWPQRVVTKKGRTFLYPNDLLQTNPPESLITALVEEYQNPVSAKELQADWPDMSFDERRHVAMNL

Legend:
[1] = target: full-length Marburg virus nucleoprotein (MARV NP), recombinant (Marburg virus) (UniProt P27588); assay: cryoEM images; both purified
[2] = target: Marburg virus nucleoprotein (NP) in the nucleocapsid of purified virions (Marburg virus) (UniProt P27588); assay: cryo-EM structure

| Substance | binding [1] | binding [2] |
| --- | --- | --- |
| full-length Marburg virus nucleoprotein (MARV NP), recombinant (from UniProt P27588 1-695) | binds |  |
| Marburg virus nucleoprotein (NP) in the nucleocapsid of purified virions (from UniProt P27588 1-695) |  | binds |
